Values quoted from earlier work in patent publication USRE44987E1, “Bromo-phenyl substituted thiazolyl dihydropyrimidines” (Sunshine Lake Pharma Co., Ltd., priority 2007, dated 2014).
For at least one compound, name, drawing or mass did not settle the structure.

System: hepatitis B virus
Conditions: Science, 299 (2003), 893-896; cited from earlier work

**Q.** With `Nc1ccn([C@@H]2CS[C@H](CO)O2)c(=O)n1` [lamivudine, 4-amino-1-[(2R-cis)-2-(hydroxymethyl)-1,3-oxathiolan-5-yl-]-pyrimidin-2(1H)-one] as the compound, how does the IC50 read?
**A.** 300 nM
